Values quoted from earlier work in patent US20120178782A1, “COMPOSITIONS AND METHODS FOR TREATING PROLIFERATIVE DISEASES” (priority 2009, published 2012).
At least one compound was matched to its structure with a doubt left.

Tested on: MDA-MB-231 breast cancer cells
Conditions: Hong-Un Yu et al. 2008; cited from earlier work

Row | Structure (SMILES) | dose for cell growth inhibition
1 | CN(CCOc1ccc(CC2SC(=O)NC2=O)cc1)c1ccccn1 (centres unmarked) [Rosiglitazone] | at least 75 μM
2 | Cc1c(C)c2c(c(C)c1O)CCC(C)(COc1ccc(CC3SC(=O)NC3=O)cc1)O2 (centres unmarked) [Troglitazone] | 25 to 50 µM
